Results on two molecules are retold here after US20130252890A1, “6,7-DIHYDRO-5H-BENZO[7]ANNULENE DERIVATIVES, PROCESS FOR PREPARATION THEREOF, PHARMACEUTICAL PREPARATIONS COMPRISING THEM, AND THE USE THEREOF FOR PRODUCTION OF MEDICAMENTS” (BAYER INTELLECTUAL PROPERTY GMBH, priority 2010, published 2013).

Amino acid sequences for entries named in this document (tags omitted).
UniProt P03372, whole entry: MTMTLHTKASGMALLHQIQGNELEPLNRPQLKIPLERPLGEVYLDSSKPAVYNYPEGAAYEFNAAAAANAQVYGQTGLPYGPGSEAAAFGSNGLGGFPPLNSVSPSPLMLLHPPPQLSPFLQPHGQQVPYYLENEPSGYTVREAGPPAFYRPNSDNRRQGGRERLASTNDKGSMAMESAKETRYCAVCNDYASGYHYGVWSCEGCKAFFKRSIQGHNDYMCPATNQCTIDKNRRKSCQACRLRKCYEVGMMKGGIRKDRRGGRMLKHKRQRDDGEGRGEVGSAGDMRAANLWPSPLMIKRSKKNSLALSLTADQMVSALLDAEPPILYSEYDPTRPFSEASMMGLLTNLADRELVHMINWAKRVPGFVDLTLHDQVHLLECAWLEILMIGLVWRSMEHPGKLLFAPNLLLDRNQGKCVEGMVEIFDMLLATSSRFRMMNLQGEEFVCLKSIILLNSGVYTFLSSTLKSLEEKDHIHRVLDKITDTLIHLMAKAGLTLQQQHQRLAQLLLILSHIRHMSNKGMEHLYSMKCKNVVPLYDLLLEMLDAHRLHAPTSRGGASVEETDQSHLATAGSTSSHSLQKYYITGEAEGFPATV

The term IC50 denotes the concentration needed to halve the response being measured.

The structures given here were assigned with low confidence; some may be wrong.

For this experiment, the target named is oestrogen receptor (ER) (Homo sapiens, UniProt P03372). Nature of the experiment: Anti-oestrogenic action in MVLN cells (inhibition of estradiol-induced luciferase). The class given is cell-based. Particulars: read-out: Antioestrogenic action in vitro: MVLN transactivation antagonism IC50, inhibition of estradiol-induced luciferase signal, value of Ex. 44 is a mean value. An excerpt:
The anti-oestrogenic action of the claimed pharmacological compounds was investigated in so-called MVLN cells in vitro. MVLN cells are derivatives of the hormone-responsive MCF7 breast cancer cells known by a person skilled in the art. These MVLN cells express, along with the functional oestrogen receptor (ER), a reporter construct, which under ER-activation expresses luciferase. Determination of the activity of the induced luciferase permits a direct conclusion on the oestrogen properties of substances. To investigate the anti-oestrogenic properties of the pharmacological compounds, they were investigated in the presence of oestrogen for their potential for inhibiting the luciferase signal induced by estradiol. The claimed pharmacological test substances were investigated in MVLN cells for their anti-oestrogenic potential, as described (see Table 2).

In the case of `CN(CCCCCCC1=C(c2ccc(F)c(F)c2)CCCc2cc(O)ccc21)CCCCS(=O)(=O)CCC(F)(F)C(F)(F)F`, the IC50 worked out at 0.017 µM.
Next, `CN(CCCCCCC1=C(c2ccc(F)cc2)CCCc2cc(O)ccc21)CCCCCS(=O)(=O)CCC(F)(F)F`: 0.031 µM.
